In this experiment the test system is H358 cells (KRAS mutant). Nature of the experiment: CellTiter-Glo viability assay, H358.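 Further: viable cell number estimated from ATP-dependent luminescence following exposure to serially diluted inhibitor.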 In kind it is cell-based. To be noted: Homo sapiens, NCI-H358, H358, 96 hours, read-out: KRAS CTG EC50 H358. As for the experimental part:
Structure determination and refinement.
PHASER (R.J. Read, Acta Crystallogr D Biol Crystallogr 2001, 57, 1373-1382) using structure PDB ID: 3G5D and 5J9Z as templates. The molecules in the asymmetric unit were manually adjusted using the program COOT (P. Emsley, K. Cowtan, Acta Crystallogr D Biol Crystallogr 2004, 60, 2126-2132). The refinement was performed with Phenix 1.10 (P.D. Adams, P.V.
Afonine, G. Bunkoczi, V.B. Chen, I.W. Davis, N. Echols, J.J. Headd, L.W. Hung, G.J. Kapral, R.W.
Grosse-Kunstleve, A.J. McCoy, N.W. Moriarty, R. Oeffner, R.J. Read, D.C. Richardson, J.S.
Richardson, T.C. Terwilliger, P.H. Zwart, Acta Cryst 2010, D66, 213-221). […]
Afterwards viability studies were carried out using CellTiter-Glo Assay (Promega, USA) that is a homogeneous method of determining the number of viable cells in culture. It is based on quantification of ATP, indicating the presence of metabolically active cells. […] Following incubation the luminescence was recorded on an EnVision microplate reader (Perkin Elmer) using 500 ms integration time. The data was then analyzed using the Quattro Research Software Suite for EC50-determination. As quality control the Z’-factor was calculated from 16 positive and negative control values. […] All data points were measured in duplicates for each plate and were replicated in at least two plates.
(In general: In ATP-based viability assays light output follows the ATP content of the culture.)

Each structure is given as a SMILES string.

In general, EC50 refers to the concentration needed to bring the measured effect to its halfway point.

In the case of `COc1cc2ncnc(Nc3ccc(F)c(Cl)c3)c2cc1OCCCN1CCOCC1` [Gefitinib, gefitinib, reference compound], the EC50 was 10.8 ± 4.93 µM.

For the origin of these results see PMC6886544.
